Five molecules from publication PMC3742192 can be followed below.

Amino acid sequences for entries named in this document (tags omitted).
UniProt P46940: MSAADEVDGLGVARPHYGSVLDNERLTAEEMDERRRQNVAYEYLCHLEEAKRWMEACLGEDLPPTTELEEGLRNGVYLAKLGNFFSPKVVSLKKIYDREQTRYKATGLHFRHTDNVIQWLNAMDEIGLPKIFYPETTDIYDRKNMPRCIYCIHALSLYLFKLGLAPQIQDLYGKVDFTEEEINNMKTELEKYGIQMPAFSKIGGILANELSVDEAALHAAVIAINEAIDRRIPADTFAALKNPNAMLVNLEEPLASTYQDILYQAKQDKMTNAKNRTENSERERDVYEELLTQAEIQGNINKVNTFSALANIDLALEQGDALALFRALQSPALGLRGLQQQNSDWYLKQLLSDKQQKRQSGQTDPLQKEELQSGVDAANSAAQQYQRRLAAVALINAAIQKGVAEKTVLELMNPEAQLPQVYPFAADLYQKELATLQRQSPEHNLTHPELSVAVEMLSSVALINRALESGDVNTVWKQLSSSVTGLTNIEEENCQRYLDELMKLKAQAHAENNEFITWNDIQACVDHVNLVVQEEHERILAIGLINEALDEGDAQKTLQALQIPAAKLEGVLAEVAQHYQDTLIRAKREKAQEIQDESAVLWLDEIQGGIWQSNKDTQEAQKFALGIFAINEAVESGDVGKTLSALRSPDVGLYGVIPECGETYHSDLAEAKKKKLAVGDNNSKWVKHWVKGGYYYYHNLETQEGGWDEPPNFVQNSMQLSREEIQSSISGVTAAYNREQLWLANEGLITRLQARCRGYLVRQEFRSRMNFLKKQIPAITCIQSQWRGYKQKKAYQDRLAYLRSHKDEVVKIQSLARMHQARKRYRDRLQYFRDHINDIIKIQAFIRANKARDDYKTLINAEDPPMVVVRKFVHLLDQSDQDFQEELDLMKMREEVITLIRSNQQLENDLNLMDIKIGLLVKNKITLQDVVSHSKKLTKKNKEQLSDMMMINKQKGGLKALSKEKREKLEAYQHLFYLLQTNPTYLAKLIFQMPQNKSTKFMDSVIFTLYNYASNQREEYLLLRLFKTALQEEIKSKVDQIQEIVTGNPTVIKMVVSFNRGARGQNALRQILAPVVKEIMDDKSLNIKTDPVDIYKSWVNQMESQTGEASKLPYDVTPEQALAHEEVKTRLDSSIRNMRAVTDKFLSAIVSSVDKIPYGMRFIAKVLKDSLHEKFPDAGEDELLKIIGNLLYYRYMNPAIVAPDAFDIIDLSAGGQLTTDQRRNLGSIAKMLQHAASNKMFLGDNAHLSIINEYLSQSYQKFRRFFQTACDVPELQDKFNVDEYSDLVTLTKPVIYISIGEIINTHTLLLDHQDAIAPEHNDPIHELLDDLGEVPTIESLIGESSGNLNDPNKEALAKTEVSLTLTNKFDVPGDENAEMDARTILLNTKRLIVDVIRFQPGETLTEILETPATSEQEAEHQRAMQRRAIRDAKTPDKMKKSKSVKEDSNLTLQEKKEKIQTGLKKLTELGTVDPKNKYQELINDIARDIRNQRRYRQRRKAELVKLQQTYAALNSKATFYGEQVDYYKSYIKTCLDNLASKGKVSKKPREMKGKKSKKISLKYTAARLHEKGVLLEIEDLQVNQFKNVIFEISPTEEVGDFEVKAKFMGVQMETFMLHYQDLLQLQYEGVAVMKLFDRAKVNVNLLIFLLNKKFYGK

No constants are given. Whether binding was seen depends on the method and setting. In cells and extracts the contact can be indirect. Some entries that bind do so weakly or less than the wild type.

Assay [1] addresses IQGAP1 (human (endogenous in HUVEC)) (UniProt P46940). As to the kind of experiment: co-IP; control HUVEC lysate (30 mM HEPES pH 7.4, 50 mM NaCl, 1% Triton X-100, 10% glycerol, 1 mM EGTA) immunoprecipitated overnight at 4 °C with an antibody to IQGAP1 (IgG as control), protein A- and G-Sepharose; blotted for adherens junction proteins.
Assay [2] concerns the target T1, p120-catenin (human (endogenous in HUVEC)) (UniProt O60716).
T1 sequence: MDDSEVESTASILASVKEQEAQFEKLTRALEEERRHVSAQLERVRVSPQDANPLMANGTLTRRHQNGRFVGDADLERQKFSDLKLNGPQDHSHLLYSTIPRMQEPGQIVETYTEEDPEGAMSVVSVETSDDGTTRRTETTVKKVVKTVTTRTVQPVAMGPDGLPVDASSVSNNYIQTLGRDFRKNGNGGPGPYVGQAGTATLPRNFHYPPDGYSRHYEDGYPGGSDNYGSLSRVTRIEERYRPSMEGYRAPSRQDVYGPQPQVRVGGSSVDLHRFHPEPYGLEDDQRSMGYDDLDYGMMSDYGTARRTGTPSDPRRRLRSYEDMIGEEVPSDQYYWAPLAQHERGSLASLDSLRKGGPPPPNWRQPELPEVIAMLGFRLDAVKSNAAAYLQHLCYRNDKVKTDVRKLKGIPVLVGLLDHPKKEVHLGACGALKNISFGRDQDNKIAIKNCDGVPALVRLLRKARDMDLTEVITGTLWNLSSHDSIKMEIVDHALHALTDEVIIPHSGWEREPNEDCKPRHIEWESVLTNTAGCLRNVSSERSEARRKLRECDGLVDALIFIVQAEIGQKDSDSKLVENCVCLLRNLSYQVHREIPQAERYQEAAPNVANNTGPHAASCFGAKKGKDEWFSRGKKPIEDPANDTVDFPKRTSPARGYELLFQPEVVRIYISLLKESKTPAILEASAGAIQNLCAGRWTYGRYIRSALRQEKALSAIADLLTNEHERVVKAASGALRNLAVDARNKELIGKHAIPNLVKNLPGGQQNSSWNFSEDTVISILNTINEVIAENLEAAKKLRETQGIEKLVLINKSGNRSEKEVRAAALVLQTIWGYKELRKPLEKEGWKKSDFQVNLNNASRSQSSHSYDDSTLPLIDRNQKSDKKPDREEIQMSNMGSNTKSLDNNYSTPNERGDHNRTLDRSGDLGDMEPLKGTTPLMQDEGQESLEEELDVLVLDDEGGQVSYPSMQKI
The assay can be described thus: co-IP; lysates of HUVECs transfected with IQGAP1 siRNA or scrambled siRNA for 48 h, immunoprecipitated with antibodies to p120 or β-catenin; blotted for VE-cadherin, N-cadherin, β- and α-catenin.

Assay [3] concerns the target T2, β-catenin (human (endogenous in HUVEC)), P35222.
T2 chain: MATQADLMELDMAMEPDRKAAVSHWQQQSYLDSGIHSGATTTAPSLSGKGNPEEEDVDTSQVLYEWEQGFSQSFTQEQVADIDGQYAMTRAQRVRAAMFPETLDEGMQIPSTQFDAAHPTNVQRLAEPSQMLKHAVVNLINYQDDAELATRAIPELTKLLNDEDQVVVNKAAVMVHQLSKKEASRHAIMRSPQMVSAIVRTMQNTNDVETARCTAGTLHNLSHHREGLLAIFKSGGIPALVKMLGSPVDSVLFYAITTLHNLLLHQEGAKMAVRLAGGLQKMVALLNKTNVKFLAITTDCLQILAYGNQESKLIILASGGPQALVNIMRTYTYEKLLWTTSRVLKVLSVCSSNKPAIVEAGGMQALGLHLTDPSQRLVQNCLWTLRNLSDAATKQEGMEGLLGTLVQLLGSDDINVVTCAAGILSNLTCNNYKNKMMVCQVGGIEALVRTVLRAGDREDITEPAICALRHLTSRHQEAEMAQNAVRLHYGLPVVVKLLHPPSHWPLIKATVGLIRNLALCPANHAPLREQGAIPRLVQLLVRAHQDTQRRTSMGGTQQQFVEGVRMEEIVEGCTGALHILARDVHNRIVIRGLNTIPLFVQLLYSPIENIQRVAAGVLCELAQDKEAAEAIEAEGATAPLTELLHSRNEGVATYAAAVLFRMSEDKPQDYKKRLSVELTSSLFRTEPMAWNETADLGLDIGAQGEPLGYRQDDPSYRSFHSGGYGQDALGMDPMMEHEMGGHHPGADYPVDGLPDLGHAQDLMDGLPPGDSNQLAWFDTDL
The assay is described as above. Conditions: remark: other sources report otherwise.

On to β-catenin (from UniProt P35222 1-781), for which the binding result in assay [1] and in assay [2] was “binds” throughout.

B1: vascular endothelial (VE)-cadherin (protein, UniProt P33151 48-784)
chain: DWIWNQMHIDEEKNTSLPHHVGKIKSSVSRKNAKYLLKGEYVGKVFRVDAETGDVFAIERLDRENISEYHLTAVIVDKDTGENLETPSSFTIKVHDVNDNWPVFTHRLFNASVPESSAVGTSVISVTAVDADDPTVGDHASVMYQILKGKEYFAIDNSGRIITITKSLDREKQARYEIVVEARDAQGLRGDSGTATVLVTLQDINDNFPFFTQTKYTFVVPEDTRVGTSVGSLFVEDPDEPQNRMTKYSILRGDYQDAFTIETNPAHNEGIIKPMKPLDYEYIQQYSFIVEATDPTIDLRYMSPPAGNRAQVIINITDVDEPPIFQQPFYHFQLKENQKKPLIGTVLAMDPDAARHSIGYSIRRTSDKGQFFRVTKKGDIYNEKELDREVYPWYNLTVEAKELDSTGTPTGKESIVQVHIEVLDENDNAPEFAKPYQPKVCENAVHGQLVLQISAIDKDITPRNVKFKFILNTENNFTLTDNHDNTANITVKYGQFDREHTKVHFLPVVISDNGMPSRTGTSTLTVAVCKCNEQGEFTFCEDMAAQVGVSIQAVVAILLCILTITVITLLIFLRRRLRKQARAHGKSVPEIHEQLVTYDEEGGGEMDTTSYDVSVLNSVRRGGAKPPRPALDARPSLYAQVQKPPRHAPGAHGGPGEMAAMIEVKKDEADHDGDGPPYDTLHIYGYEGSESIAESLSSLGTDSSDSDVDYDFLNDWGPRFKMLAELYGSDPREELLY
Consider B1, for which the binding entry in assay [1] and in assay [2] was “binds” each time.

B2: vascular endothelial (VE)-cadherin, P33151 48-784 (protein)
chain: B1 chain
On to B2, for which the binding entry in assay [3] is reported as “binds”.

B3: γ-catenin (protein, UniProt P14923 1-745)
chain: MEVMNLMEQPIKVTEWQQTYTYDSGIHSGANTCVPSVSSKGIMEEDEACGRQYTLKKTTTYTQGVPPSQGDLEYQMSTTARAKRVREAMCPGVSGEDSSLLLATQVEGQATNLQRLAEPSQLLKSAIVHLINYQDDAELATRALPELTKLLNDEDPVVVTKAAMIVNQLSKKEASRRALMGSPQLVAAVVRTMQNTSDLDTARCTTSILHNLSHHREGLLAIFKSGGIPALVRMLSSPVESVLFYAITTLHNLLLYQEGAKMAVRLADGLQKMVPLLNKNNPKFLAITTDCLQLLAYGNQESKLIILANGGPQALVQIMRNYSYEKLLWTTSRVLKVLSVCPSNKPAIVEAGGMQALGKHLTSNSPRLVQNCLWTLRNLSDVATKQEGLESVLKILVNQLSVDDVNVLTCATGTLSNLTCNNSKNKTLVTQNSGVEALIHAILRAGDKDDITEPAVCALRHLTSRHPEAEMAQNSVRLNYGIPAIVKLLNQPNQWPLVKATIGLIRNLALCPANHAPLQEAAVIPRLVQLLVKAHQDAQRHVAAGTQQPYTDGVRMEEIVEGCTGALHILARDPMNRMEIFRLNTIPLFVQLLYSSVENIQRVAAGVLCELAQDKEAADAIDAEGASAPLMELLHSRNEGTATYAAAVLFRISEDKNPDYRKRVSVELTNSLFKHDPAAWEAAQSMIPINEPYGDDMDATYRPMYSSDVPLDPLEMHMDMDGDYPIDTYSDGLRPPYPTADHMLA
As for B3, in assay [1], the binding entry is “binds”.

B4: p120-catenin (protein, UniProt O60716 1-968)
chain: T1 sequence
As for B4, in assay [1], the binding entry is reported as “binds”.
